± gives the standard error. Many entries were measured with a wide error.
B1: glmS ribozyme (parent)
chain: AUAAAAGCGCCAGAACUACAGAAAUGUAGUUGACGAGGAGGAGGUUUAUCGAAUUUUCGGCGGAUGCCUCCAAA

Variants of: B1
Experiment: kcat; higher = faster cleavage; RNA array
Conditions: with glucosamine-6-phosphate
Method in brief: (§1)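 E. coli RNA polymerase transcribed barcoded ribozyme variants in situ on sequenced MiSeq chips, which were tracked via a hybridised Cy3 probe at 37 °C. Tiles were imaged over ~14 h after glucosamine-6-phosphate (40 μM to 10 mM) in HEPES/KCl/Mg(OAc)2 buffer was flowed in. Normalised per-tile medians were fit to one- or two-exponential decays for kobs, and kcat and KM came from weighted Michaelis–Menten fits.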
With G29U G40A U45A the kcat was 0.000632 ± 0.00034 s⁻¹. Work on U47A A48C yielded a kcat of 0.000714 ± 0.00042 s⁻¹. G51A G62C U65C gave a kcat of 1.12e-05 ± 8.3e-06 s⁻¹. With G37A C50G U54C the kcat was 3.67e-05 ± 1.9e-05 s⁻¹. Variant U30G A53G has a kcat of 0.0121 ± 0.0069 s⁻¹. G40C U54G gave a kcat of 0.00305 ± 0.0016 s⁻¹. Work on A64U U69C yielded a kcat of 5.01e-05 ± 2.7e-06 s⁻¹. Variant G51U C67A has a kcat of 1.18e-05 ± 6.7e-06 s⁻¹. G40A C71G was tested, and the kcat was 0.00741 ± 0.0039 s⁻¹. For G40A C71A, the kcat was 0.0232 ± 0.019 s⁻¹. A33G U69G showed a kcat of 4.47e-05 ± 2.2e-05 s⁻¹. Work on U55G C70A yielded a kcat of 0.000145 ± 2.6e-05 s⁻¹. U46G G51U U56G U69G gave a kcat of 3.25e-05 ± 3.2e-05 s⁻¹. G40U C58A showed a kcat of 0.000609 ± 4.4e-05 s⁻¹. With U55G U69G the kcat was 7.83e-05 ± 1.5e-05 s⁻¹. In the case of G29U U56A, the kcat is reported as 0.00639 ± 0.0048 s⁻¹. C61U U69A showed a kcat of 4.43e-05 ± 1.5e-05 s⁻¹. In the case of U30G C71G, the kcat is reported as 0.000621 ± 0.00036 s⁻¹. For U46G U56A, the kcat was 0.0015 ± 0.00084 s⁻¹. Variant A53C G66C has a kcat of 0.000476 ± 8.1e-05 s⁻¹. A48G C68A showed a kcat of 1.35e-05 ± 5e-06 s⁻¹. For A48G C68G, the kcat was 5.98e-05 ± 7.3e-06 s⁻¹. Variant G38U C61U U65A U69G has a kcat of 2.93e-05 ± 1.7e-05 s⁻¹. Variant A53U C67U has a kcat of 0.00202 ± 0.0012 s⁻¹. Variant U30G A52U has a kcat of 6.83e-05 ± 9.4e-06 s⁻¹.

Variants of: B1
Experiment: KM; higher = weaker cofactor use; RNA array
Conditions: with glucosamine-6-phosphate
Method in brief: as §1
For G29U G40A U45A, the KM was 2530 ± 2300 µM. U47A A48C showed a KM of 4260 ± 3900 µM. For U30G A53G, the KM was 2780 ± 2200 µM. G40C U54G gave a KM of 1970 ± 1500 µM. Variant A6C A53G has a KM of 3110 ± 770 µM. With A64U U69C the KM was 1050 ± 310 µM. G40A C71G showed a KM of 1850 ± 1400 µM. For G40A C71A, the KM was 4470 ± 4200 µM. In the case of U55G C70A, the KM is reported as 148 ± 85 µM. Work on G40U C58A yielded a KM of 150000 ± 11000 µM. A6G A53U showed a KM of 1940 ± 560 µM. Variant G29U U56A has a KM of 12800 ± 12000 µM. For U30G C71G, the KM was 4220 ± 3900 µM. A6U C71A showed a KM of 1730 ± 140 µM. U46G U56A was tested, and the KM was 1180 ± 860 µM. Work on A53C G66C yielded a KM of 2510 ± 780 µM. Variant A53U C67U has a KM of 270 ± 240 µM. For U30G A52U, the KM was 2050 ± 1100 µM.

Variants of: B1
Experiment: self-cleavage kobs at 160 uM GlcN6P; higher = faster cleavage; RNA array
Conditions: with glucosamine-6-phosphate
Method in brief: as §1
In the case of G29U G40A U45A, the “self-cleavage kobs at 160 uM GlcN6P” value is reported as 2.15e-05 ± 2e-05 s⁻¹. With G37A C50G U54C the “self-cleavage kobs at 160 uM GlcN6P” value was 5.14e-05 ± 2.6e-05 s⁻¹. In the case of A33G U69G, the “self-cleavage kobs at 160 uM GlcN6P” value is reported as 0.000186 ± 0.00011 s⁻¹. In the case of U46G G51U U56G U69G, the “self-cleavage kobs at 160 uM GlcN6P” value is reported as 3.32e-05 ± 2.2e-05 s⁻¹. For A48G C68G, the “self-cleavage kobs at 160 uM GlcN6P” value was 0.000518 ± 0.00027 s⁻¹.

Variants of: B1
Experiment: self-cleavage kobs at 640 uM GlcN6P; higher = faster cleavage; RNA array
Conditions: with glucosamine-6-phosphate
Method in brief: as §1
With G37A C50G U54C the “self-cleavage kobs at 640 uM GlcN6P” value was 3.08e-05 ± 2.2e-05 s⁻¹. G38U C61U U65A U69G was tested, and the “self-cleavage kobs at 640 uM GlcN6P” value was 5.06e-05 ± 3.4e-05 s⁻¹.

Variants of: B1
Experiment: self-cleavage kobs at 2500 uM GlcN6P; higher = faster cleavage; RNA array
Conditions: with glucosamine-6-phosphate
Method in brief: as §1
With A64U U69C the “self-cleavage kobs at 2500 uM GlcN6P” value was 3.85e-05 ± 2.2e-05 s⁻¹. In the case of U46G U56A, the “self-cleavage kobs at 2500 uM GlcN6P” value is reported as 0.000471 ± 0.00024 s⁻¹. A48G C68A was tested, and the “self-cleavage kobs at 2500 uM GlcN6P” value was 1.97e-05 ± 1.4e-05 s⁻¹.

Variants of: B1
Experiment: self-cleavage kobs at 40 uM GlcN6P; higher = faster cleavage; RNA array
Conditions: with glucosamine-6-phosphate
Method in brief: as §1
With U46G G51U U56G U69G the “self-cleavage kobs at 40 uM GlcN6P” value was 2.64e-05 ± 2.3e-05 s⁻¹. U55G U69G was tested, and the “self-cleavage kobs at 40 uM GlcN6P” value was 2.63e-05 ± 2.5e-05 s⁻¹. U30G C71G was tested, and the “self-cleavage kobs at 40 uM GlcN6P” value was 2.56e-05 ± 2.2e-05 s⁻¹.

Variants of: B1
Experiment: self-cleavage kobs at 10000 uM GlcN6P; higher = faster cleavage; RNA array
Conditions: with glucosamine-6-phosphate
Method in brief: as §1
For U46G G51U U56G U69G, the “self-cleavage kobs at 10000 uM GlcN6P” value was 2.58e-05 ± 1.7e-05 s⁻¹.
